Molecules are shown by their SMILES. This is one part of the list. The main result of the screen is listed elsewhere. These columns were measured beside it and carry no call. Most of these compounds were active or inconclusive in the main read-out, so they are no random draw.

The test is described as follows: hepatocyte lipid droplet accumulation inhibitors, confirmation, imaging, AML12 mouse hepatocytes, single concentration, high-content (AID 463183).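 Note: cells counted after overnight compound exposure.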 The note with it: BODIPY lipid droplet imaging, measured here: cell count, cytotoxicity, at 5.2 µM, droplets induced with 100 µM oleic acid.
Molecule `CCCCc1ccc(NC(=O)CSc2nnc(C)c(=O)n2N)cc1` registered a cell count of 1560 cells.
In the case of `COc1ccc(CCNC(=O)CC(c2ccccc2)c2cc(C)ccc2O)cc1OC` (centres undefined) it was 1530 cells; in that of `CN(C)c1ccc(NC2=C([N+](=O)[O-])CS(=O)(=O)C2)cc1`, 1550 cells.
On to `CC1=CC(C)(C)N2C(=O)C3(NCCc4c3[nH]c3ccccc43)c3cccc1c32` (centres undefined), for which the cell count came to 1650 cells.
With `CCOc1ccccc1-c1cc(C(=O)N/N=C/c2ccc(O)c(OC)c2)c2ccccc2n1` the figure was 1510 cells; with `Cc1ccc(-c2[nH]c3ccccc3c2SCCNC(=O)c2ccc(S(=O)(=O)N3CCOCC3)cc2)cc1`, 1620 cells.
In the case of `CCOc1ccc(CCNC(=O)C2CCN(S(=O)(=O)N3CC(C)CC(C)C3)CC2)cc1OCC` (centres undefined) it was 1550 cells; in that of `C/C=C(/C)C(=O)O[C@@H]1[C@H](OC(=O)C=C(C)C)c2c(ccc3ccc(=O)oc23)OC1(C)C`, 1590 cells.
In turn, `COc1ccc(CCNC(=O)CCOc2cc(C)ccc2C)cc1OC` registered a cell count of 1570 cells.
In the case of `CCOc1ccc(CCNC(=O)CCNC(=O)c2ccccc2Cl)cc1OCC` it was 1530 cells; in that of `CCCOc1cccc(C(=O)NCCNC(=O)c2ccc(C)nc2)c1`, 1590 cells.
For the molecule `COc1ccc(C(=O)OC(C)C(=O)NC(C)CCc2ccccc2)cc1[N+](=O)[O-]` (centres undefined), the cell count stood at 1670 cells.
Consider `CCCCOc1ccc(C(C)NC(=O)CCS(=O)(=O)Cc2ccc(C)cc2)cc1` (centres undefined), for which the cell count worked out at 1600 cells.
With `CCNc1nc(N)c(C(=O)c2ccc(Cl)s2)s1` the figure was 1570 cells; with `COc1cc(NC(=O)c2cccs2)c(OC)cc1NC(=O)CCC(=O)Nc1ccc(C)cc1`, 1610 cells.
For the molecule `CS(=O)(=O)N(CC(=O)Nc1cccc(Br)c1)Cc1ccccc1`, the cell count worked out at 1600 cells.
For `CCOc1ccc(CCNC(=O)Cn2ncn3nc(-c4ccc(OC)cc4)cc3c2=O)cc1OCC`, the cell count is 1530 cells.
Molecule `N#CC(C#N)=c1ccc2c(c1)N1C(c3ccccc3)=CC(c3ccccc3)C3CCCCC31N=2` (centres undefined) returned a cell count of 1630 cells.
As to `CCOC(=O)C1CCN(C(=O)C2(NC(=O)Nc3ccccc3C)CCCCC2)CC1`, the cell count was 1640 cells.
With `COc1nc(C)nc2c1ccc1ccccc12` the figure was 1560 cells; with `CCOC(=O)c1cc(CC)sc1NC(=O)C1CC(=O)NN1Cc1ccccc1` (centres undefined), 1690 cells; with `CCOc1ccc(C(=O)OCC(=O)Nc2nc(OC)cc(OC)n2)cc1OCC`, 1650 cells.
In the case of `Cc1nc(Nc2ccc(O)cc2)c2c3c(sc2n1)CCCC3` it was 1600 cells.
With `Cc1ccc([N+](=O)[O-])cc1NC(=O)C(C)Sc1nnc(C)n1CC1CCCO1` (centres undefined), the cell count stood at 1610 cells.
With `O=C(c1ccc(S(=O)(=O)Nc2cccc(C(F)(F)F)c2)cc1)N1CCOCC1` the figure was 1490 cells.
On to `COc1n[nH]c(C(=O)Nc2cc(F)ccc2C)c1[N+](=O)[O-]`, for which the cell count was 1610 cells.
Turning to `C=CCN1C(=O)/C(=C\C=C2\N(C)c3ccccc3C2(C)C)SC1=S`, the cell count worked out at 1670 cells.
In turn, `O=C(CSCC(=O)N1CCCc2ccccc21)Nc1nc(-c2ccccc2)cs1` returned a cell count of 1620 cells.
Regarding `C=CCN(C(=O)c1csnn1)C(C(=O)NC1CCCCC1)c1ccccc1F` (centres undefined), the cell count worked out at 1600 cells.
With `CCCCCn1c(N)c(-c2nc3ccccc3s2)c2c([N+](=O)[O-])nn(CC)c(=O)c21` the figure was 1640 cells; with `Cc1nnc(SCC(=O)Nc2cc(-c3cc(C)c(C)cc3C)nn2-c2ccccc2)s1`, 1570 cells.
In the case of `O=C1c2ccccc2C(=O)c2c(Nc3ccc(CCO)cc3)ccc(O)c21` it was 1530 cells.
As for `CC1=C(/C=N/Nc2ccc([N+](=O)[O-])cc2[N+](=O)[O-])C(C)(C)CCC1`, the cell count was 1620 cells.
In the case of `O=Nc1c(-c2c(O)[nH]c3cc(Br)ccc23)[nH]c2ccccc12` it was 1490 cells; in that of `CCCCCCn1c(SCC(=O)Nc2cc(C)on2)nc2ccccc2c1=O`, 1590 cells.
With `COCc1ccc(C(=O)NC2CCCc3c2cnn3-c2ccc(C)c(C)c2)o1` (centres undefined) the figure was 1510 cells; with `CCc1nn2c(N3CCOCC3)cc(C)nc2c1-c1ccc(F)cc1`, 1570 cells; with `CCc1ccc(OCC(=O)N/N=C(\C)c2ccc(-n3ccnc3)cc2)cc1`, 1580 cells.
`CCOc1ccc(CCNC(=O)CS(=O)Cc2nc(-c3ccc(OC)cc3)oc2C)cc1OCC` (centres undefined) came in with a cell count of 1580 cells.
